Measured values published in PubChem BioAssay AID1345085 (National Center for Advancing Translational Sciences (NCATS), 2018).
Inconclusive results, whose numbers are uncertain, are shown with a selection of clear calls. Potencies of inconclusive entries are doubtful fits and often do not repeat. The source made the active and inactive calls. Calls follow the shape of the dose curve; as a rule, active = well fitted cell-killing curve with a large enough effect; inconclusive = small, poorly fitted or top-dose-only effect, or effect the other way; inactive = no such curve, though single readings can be large or run the other way.
% is scaled to controls: 0 for no effect and ±100 for the full control effect; potency is read from the fitted curve at half-maximal effect.
Also: nearly all actives have a fitted effect of over 55% in size.

Each compound was assayed on Jar (assay: Confirmatory qHTS for gynecologic anti-cancer compounds from libraries of approved drugs and bioactive compounds). Conditions: gynecologic cancer cell panel viability, ATPlite luminescence, 48 h; series mostly up to 57.6 µM; activity change, negative = viability loss: at the top concentration.
Outline: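 Cells (1,000/well) were plated, left 16 h at 37 C/5% CO2, then given compound at 11 concentrations (1:3) from 57.5 uM to 0.977 nM for 48 h. ATPlite luminescence after 15 min at room temperature gave IC50 values.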
With `C#C[C@]1(O)CC[C@H]2[C@@H]3CCC4=CC(=O)CC[C@@H]4[C@H]3CC[C@@]21CC` the “activity change, negative = viability loss” value was inactive: 7.43%. `Cc1cnc(CNC(=O)c2c(=O)c3ccc(N4CCCN(C)CC4)nc3n3c2sc2ccccc23)cn1` was tested, and the activity change, negative = viability loss was inactive: 14.2% [at 10.7 µM]. `COCCOc1nc(-c2ccc(Cl)c(Cl)c2)n(-c2ccc(NC(=O)CCl)cc2)n1` was tested, and the Potency was inconclusive: 43.2 µM [cytotoxic, single point]. With `CCCCc1oc2ccccc2c1C(=O)c1cc(I)c(OCCN(CC)CC)c(I)c1` the Potency was active: 79.4 µM. For `CNC(=O)c1ccccc1Sc1ccc2c(/C=C/c3ccccn3)n[nH]c2c1`, the Potency was active: 19.3 µM. In the case of `CCN[C@H]1C[C@H](C)S(=O)(=O)c2sc(S(N)(=O)=O)cc21`, the Potency is reported as inconclusive: 0.863 µM [rising, partial curve, poor fit]. In the case of `CCc1c2c(nc3ccc(OC(=O)N4CCC(N5CCCCC5)CC4)cc13)-c1cc3c(c(=O)n1C2)COC(=O)[C@]3(O)CC`, the Potency is reported as inconclusive: 24.3 µM [cytotoxic, single point]. In the case of `CC(Oc1ccc2[nH]nc(/C=C/c3cnn(CCO)c3)c2c1)c1c(Cl)cncc1Cl` (configuration not stated), the “activity change, negative = viability loss” value is reported as inactive: -2.73%. With `CCCCN(CCCC)C(=O)CN1C[C@H](c2ccc3c(c2)OCO3)[C@@H](C(=O)O)[C@@H]1c1ccc(OC)cc1` the “activity change, negative = viability loss” value was inactive: -5.2%. `COc1cc(-c2nn(C3CCC(N4CCN(C(C)=O)CC4)CC3)c3ncnc(N)c23)ccc1NC(=O)c1cc2ccccc2n1C` (configuration not stated) was tested, and the Potency was inconclusive: 43.2 µM [cytotoxic, partial curve, poor fit]. With `NC(=O)Nc1cc(-c2cccc(F)c2)sc1C(=O)NC1CCCNC1` (configuration not stated) the Potency was active: 1.22 µM. For `CCc1nc(C(N)=O)c(Nc2ccc(N3CCC(N4CCN(C)CC4)CC3)c(OC)c2)nc1NC1CCOCC1`, the Potency was active: 13.4 µM. `O=c1[nH]c(=O)n([C@H]2C[C@H](O)[C@@H](CO)O2)cc1Br` was tested, and the “activity change, negative = viability loss” value was inactive: 3.99%. In the case of `COc1cc2c(Oc3ccc(-c4cnc(Nc5ccc(F)cc5)n(C)c4=O)cc3F)ccnc2cc1OCCCN1CCOCC1`, the Potency is reported as inconclusive: 0.0306 µM [rising, partial curve, poor fit]. With `CN[C@@H](C)C(=O)N[C@H]1CN(C(=O)CC(C)C)CC[C@H]2CC[C@@H](C(=O)NC(c3ccccc3)c3ccccc3)N2C1=O` the “activity change, negative = viability loss” value was inactive: 10.5%. For `CO[C@@]12[C@H](COC(N)=O)C3=C(C(=O)C(C)=C(N)C3=O)N1C[C@@H]1N[C@@H]12`, the “activity change, negative = viability loss” value was inactive: 44.4%. In the case of `CC(C)Oc1ccc2c(=O)c(-c3ccccc3)coc2c1`, the Potency is reported as active: 21.7 µM. With `COc1cc(Nc2c(C#N)cnc3cc(OCCCN4CCN(C)CC4)c(OC)cc23)c(Cl)cc1Cl` the Potency was active: 24.3 µM. With `O=c1c2ccccc2nc2n1CCc1c-2[nH]c2ccccc12` the Potency was inconclusive: 0.153 µM [rising, partial curve, poor fit]. `Cc1ccc(NC(=O)c2ccc(CN3CCN(C)CC3)cc2)cc1Nc1nccc(-c2cccnc2)n1` was tested, and the “activity change, negative = viability loss” value was inactive: -3.28%. For `CC(C)(C(=O)NCC(F)(F)C(F)(F)F)C(=O)NC1C(=O)Nc2ccccc2-c2ccccc21` (configuration not stated), the “activity change, negative = viability loss” value was inactive: 2.12%. With `Cc1ccc(C(=O)Nc2ccc(Oc3cc4cnn(C)c4cc3-c3cn[nH]c3)c(F)c2)c(=O)n1-c1ccc(F)cc1` the Potency was inconclusive: 9.68 µM [cytotoxic, partial curve, poor fit]. With `C[C@]12CCC(=O)C=C1[C@@H]1C[C@@H]1[C@H]1[C@@H]3[C@@H]4C[C@@H]4[C@@]4(CCC(=O)O4)[C@@]3(C)CC[C@@H]12` the “activity change, negative = viability loss” value was inactive: -5.53%. In the case of `C[C@]12CCC(=O)C=C1CC[C@@H]1[C@@H]2[C@@H](O)C[C@@]2(C)[C@H]1CC[C@]2(O)C(=O)CO`, the “activity change, negative = viability loss” value is reported as inactive: 17.4%. With `CCn1cc(-c2ccnc3[nH]c(-c4cccc(CN(C)C)c4)cc23)c(-c2ccc(NC(=O)N(C)C)cc2)n1` the Potency was inconclusive: 10.6 µM [cytotoxic, partial curve]. With `Cc1ccc(-n2[nH]c(C)c(N=Nc3cccc(-c4cccc(C(=O)O)c4)c3O)c2=O)cc1C` the Potency was inconclusive: 24.3 µM [cytotoxic, single point]. With `COc1cc(Nc2ncc(F)c(Nc3ccc4c(n3)N(COP(=O)(O)O)C(=O)C(C)(C)O4)n2)cc(OC)c1OC` the Potency was inconclusive: 6.11 µM [cytotoxic, full curve]. `Cc1ccc(C(=O)Nc2ccc(CN3CCN(C)CC3)c(C(F)(F)F)c2)cc1C#Cc1cnc2[nH]ncc2c1` was tested, and the “activity change, negative = viability loss” value was inactive: 6.71%. With `COc1cc2nccc(Oc3ccc(NC(=O)Nc4cc(C)on4)c(Cl)c3)c2cc1OC` the Potency was inconclusive: 30.6 µM [cytotoxic, single point]. For `CCn1c(-c2nonc2N)nc2c(C#CC(C)(C)O)ncc(OCC3CCCNC3)c21` (configuration not stated), the Potency was inconclusive: 0.0027 µM [rising, full curve, poor fit]. `Cc1nc(NC(=O)N2CCCC2C(N)=O)sc1-c1ccnc(C(C)(C)C(F)(F)F)c1` (configuration not stated) was tested, and the Potency was active: 12.2 µM. For `N#CC1(c2cccc(C(=O)Nc3cc(Oc4ccc5nc(NC(=O)C6CC6)sc5n4)ccc3F)c2Cl)CC1`, the Potency was inconclusive: 0.685 µM [rising, partial curve, poor fit].
